PubChem BioAssay AID1259308 | NCATS, 2017
Here is a random part of about 59,000 deposited reagents. Of all reagents, about 1,510 (2.6%) were called active. 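Calls use total luciferase alone and ignore viability, so some active siRNAs may act by altering cell number.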 Entries without a mark were called inactive. Reagents against one gene are numbered here. Further read-outs or replicates are left out here. No sequences are given here.

Test: 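Candidate targets for better recombinant protein yield in mammalian cells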 (primary screen)
Cell system: human HEK293 embryonic kidney cells stably expressing firefly luciferase (HEK-CMV-Luc2-Hygro)
Knock-down reagent: single siRNA against human genes, 0.8 pmol siRNA per well
Time to read-out: 72 h
Read-out: 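Reporter luminescence and viable-cell signal on separate replicate plates, given as percent of non-targeting control and median/MAD z-scores, plus per-cell luciferase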
Reading the numbers: total luciferase, z-score and total luciferase, % of control: higher = more reporter protein produced
Hit rule: 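An siRNA counts as active if its total luciferase robust z-score exceeds 3; genes with two or more such siRNAs out of three were retested with fresh siRNAs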
Meaning of the calls: active = raised luciferase; inactive = no rise

| gene | reagent no. | total luciferase, z-score | total luciferase, % of control |
| --- | --- | --- | --- |
| CX3CR1 | 1 | -0.334 | 75.2 |
| CX3CR1 | 2 | 0.885 | 99.5 |
| CX3CR1 | 3 | 2.79 | 137 |
| RPL10A | 1 | -2.66 | 29 |
| RPL10A | 2 | -2.4 | 34.2 |
| RPL10A | 3 | -2.46 | 33 |
| BLNK | 1 | 1.31 | 108 |
| BLNK | 2 | 0.434 | 90.5 |
| BLNK | 3 | 0.349 | 88.8 |
| HSPG2 | 1 | -0.443 | 73.1 |
| HSPG2 | 2 | 1.67 | 115 |
| HSPG2 | 3 | -0.00929 | 81.7 |
| EXO1 | 1 | -1.3 | 56.1 |
| EXO1 | 2 | 0.201 | 85.9 |
| EXO1 | 3 | 1.89 | 119 |
| SYDE2 | 1 | 0.391 | 89.7 |
| SYDE2 | 2 | 0.544 | 92.7 |
| SYDE2 | 3 | -1.5 | 52.1 |
| TPCN2 | 1 | -2.47 | 32.7 |
| TPCN2 | 2 | 0.544 | 92.7 |
| TPCN2 | 3 | 0.495 | 91.7 |
| MAP3K20 | 1 | 0.2 | 85.9 |
| MAP3K20 | 2 | -0.898 | 64 |
| MAP3K20 | 3 | -1.57 | 50.7 |
| COLEC12 | 1 | -1.24 | 57.3 |
| COLEC12 | 2 | 1.15 | 105 |
| COLEC12 | 3 | 0.254 | 86.9 |

Quoted from the entries so far, 5 entries:
| gene | reagent no. | total luciferase, z-score | total luciferase, % of control |
| --- | --- | --- | --- |
| TPCN2 | 2 | 0.544 | 92.7 |
| TPCN2 | 3 | 0.495 | 91.7 |
| MAP3K20 | 1 | 0.2 | 85.9 |
| MAP3K20 | 2 | -0.898 | 64 |
| MAP3K20 | 3 | -1.57 | 50.7 |

The results go on:
| gene | reagent no. | total luciferase, z-score | total luciferase, % of control |
| --- | --- | --- | --- |
| PLG | 1 | -1.16 | 58.8 |
| PLG | 2 | -0.874 | 64.5 |
| PLG | 3 | -0.0207 | 81.5 |
| PADI4 | 1 | -0.434 | 73.3 |
| PADI4 | 2 | -0.343 | 75.1 |
| PADI4 | 3 | 0.322 | 88.3 |
| UROD | 1 | 0.132 | 84.5 |
| UROD | 2 | 0.422 | 90.3 |
| UROD | 3 | 0.266 | 87.2 |
| ST13 | 1 | 1.21 | 106 |
| ST13 | 2 | -0.595 | 70 |
| ST13 | 3 | 0.448 | 90.8 |
| C20orf144 | 1 | -0.431 | 73.3 |
| C20orf144 | 2 | -1.62 | 49.7 |
| C20orf144 | 3 | 6.41 (active) | 209 |
| CAPSL | 1 | -0.462 | 72.7 |
| CAPSL | 2 | -0.232 | 77.3 |
| CAPSL | 3 | -0.414 | 73.6 |
| NCKAP5 | 1 | 0.403 | 89.9 |
| NCKAP5 | 2 | -0.0357 | 81.2 |
| NCKAP5 | 3 | 0.0303 | 82.5 |
| SULT1C5P | 1 | -0.573 | 70.5 |
| SULT1C5P | 2 | 1.63 | 114 |
| SULT1C5P | 3 | -1.03 | 61.4 |
| SLCO1B3 | 1 | -2.06 | 41 |
| SLCO1B3 | 2 | 3.36 (active) | 149 |
| SLCO1B3 | 3 | 0.555 | 92.9 |
| EXTL3 | 1 | -0.366 | 74.6 |
| EXTL3 | 2 | 0.424 | 90.3 |
| EXTL3 | 3 | -1.22 | 57.5 |
